Some of the results follow. Construct or isoform of the protein are uncertain.
Each sequence was assayed against T1, ETS1 (UniProt P14921) (assay: DAPPL (digital affinity profiling via proximity ligation, sequencing)). Conditions: 10 mM Tris-HCl pH 7.5, 50 mM NaCl, 1 mM DTT, 4% glycerol, room temperature, 30 min; GST-TFs on glutathione beads, 16-mer random dsDNA library, 0.1% …; high values mean tight binding; double strand, one strand shown; scale: fold enrichment (6-mer frequency, TF over GST control).
T1 sequence: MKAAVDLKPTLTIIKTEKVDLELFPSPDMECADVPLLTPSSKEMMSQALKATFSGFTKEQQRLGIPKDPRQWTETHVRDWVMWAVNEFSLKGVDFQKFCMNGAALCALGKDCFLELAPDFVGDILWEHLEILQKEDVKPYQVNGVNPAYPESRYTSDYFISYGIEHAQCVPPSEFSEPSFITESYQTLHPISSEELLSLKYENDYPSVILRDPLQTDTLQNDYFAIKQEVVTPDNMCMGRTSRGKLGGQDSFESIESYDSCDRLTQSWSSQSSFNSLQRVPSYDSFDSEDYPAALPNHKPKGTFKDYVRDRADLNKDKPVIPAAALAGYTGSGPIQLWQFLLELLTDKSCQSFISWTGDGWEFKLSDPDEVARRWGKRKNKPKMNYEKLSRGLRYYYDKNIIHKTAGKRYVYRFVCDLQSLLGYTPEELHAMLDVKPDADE

Sequence	binding signal
TTTCCG	3.4
CGTTGC	1.09
GCACGC	1.15
CTCATA	1.34
GATGTT	1.23
TTTGAC	1.55
CAGGAA	1.53
AAACTA	1.36
GTAATT	1.24
TGTATG	1.27
TCCTCG	1.39
TTACGC	1.11
TATTGC	1.37
TATACG	1.26
CAGCAT	0.927
TTCCAC	1.39
CTATGC	1.48
TTCGCC	1.13
AATCTC	1.25
GATCCC	1.11

Sequence	binding signal
GGAAAT	2.53
CTTCCG	7.34
CCACTA	1.09
CTAGGC	0.998
GATTTG	1.19
TGTGGT	1.11
ACGATG	1.21
TGCAAT	1.2
TATGCT	1.24
ACGATT	1.42
CATAAT	1.09
GGTTCC	1.32
TTATTC	1.4
TATTAC	1.23
TTGCTG	1.21
ATGGGC	1.29
GAACAA	1.25
CGCGGC	0.994
CTACAC	1.43
TTGTTA	1.43

As entered above.
Value of TTGTTA under binding signal: 1.43
Value of TGTGGT under binding signal: 1.11

From publication PMC7862700
